Laboratory results published in publication PMC7430099.
Results are given in words; binding and its absence hold for the method and conditions named. In cells and extracts the contact can be indirect. Tags and fused reporters may be left off the sequences shown.

Chains of the proteins cited; added tags and fusions are not shown.
UniProt Q99720: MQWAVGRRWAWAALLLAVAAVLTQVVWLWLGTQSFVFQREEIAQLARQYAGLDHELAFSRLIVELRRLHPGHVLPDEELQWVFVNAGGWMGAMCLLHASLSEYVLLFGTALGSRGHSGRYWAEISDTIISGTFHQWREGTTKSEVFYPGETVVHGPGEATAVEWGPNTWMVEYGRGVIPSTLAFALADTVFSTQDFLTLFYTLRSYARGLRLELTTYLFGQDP

Target: σ1R-RLuc (sigma-1 receptor fused to Renilla luciferase) (human) (UniProt Q99720)
Test: FRET or BRET; BRET saturation in living HEK-293T cells: constant cDNA for the Rluc donor (AT2R-RLuc 0.9 μg or σ1-RLuc 0.75 μg) and increasing cDNA for the YFP acceptor (0.5 to 4 μg or 0.1 to 4 μg); 20 μg of cell suspension, 5 μM coelenterazine H, read at 485 and 530 nm

binding: no binding
B1: AT2R-YFP (angiotensin AT2 receptor fused to yellow fluorescent protein) (receptor, UniProt P50052 1-363)
chain: MKGNSTLATTSKNITSGLHFGLVNISGNNESTLNCSQKPSDKHLDAIPILYYIIFVIGFLVNIVVVTLFCCQKGPKKVSSIYIFNLAVADLLLLATLPLWATYYSYRYDWLFGPVMCKVFGSFLTLNMFASIFFITCMSVDRYQSVIYPFLSQRRNPWQASYIVPLVWCMACLSSLPTFYFRDVRTIEYLGVNACIMAFPPEKYAQWSAGIALMKNILGFIIPLIFIATCYFGIRKHLLKTNSYGKNRITRDQVLKMAAAVVLAFIICWLPFHVLTFLDALAWMGVINSCEVIAVIDLALPFAILLGFTNSCVNPFLYCFVGNRFQQKLRSVFRVPITWLQGKRESMSCRKSSSLREMETFVS
